# Laboratory results from patent publication US20240109843A1, “BENZALDEHYDE COMPOUNDS WITH DIRECT POLYMER DESTABILIZING EFFECTS TO TREAT SICKLE CELL DISEASE” (VIRGINIA COMMONWEALTH UNIVERSITY, priority 2018, published 2024).
# The chains behind the UniProt entries cited, without tags or fusion partners. Residues count along the entry.
# UniProt P69905, 2-142 limits assumed: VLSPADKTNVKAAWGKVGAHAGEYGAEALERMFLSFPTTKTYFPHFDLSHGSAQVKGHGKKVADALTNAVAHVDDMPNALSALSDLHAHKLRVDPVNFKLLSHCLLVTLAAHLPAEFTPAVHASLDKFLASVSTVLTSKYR
# Some of these results come from one statement about several compounds together.
# Target: Hb (Homo sapiens, UniProt P69905)
# Experiment: Drug partitioning studies, fixed and unfixed Hb adducts in non-sickling AA blood
# Assay type: cell-based
# Parameters: Hemoglobin modification, studies using non-sickling AA blood; from tissue; host or cells: non-sickling (AA) human blood, red blood cells
# Conditions: 2 mM
# Method: RBC partitioning studies were conducted both for SS RBCs following sickling studies above, or as separate independent studies with non-sickle blood. Briefly, aliquots of blood samples, which had been incubated with test molecules, were lysed either in deionized water (un-fixed), or in water containing 50 mM sodium borohydride (fixed). Samples were subjected to cation exchange HPLC analyses, as described above. Modified […] (Hb adducts) was determined as a proportion of total Hb in each sample, and partitioning ratio was determined as the relative fraction of Hb modification of fixed samples compared to corresponding non-fixed samples. The partitioning ratio is the relative fraction of Hb that was modified intracellularly by molecules that permeated the RBC membrane, as compared to unfixed adducts which reflect Hb binding without RBC membrane permeation.
row,SMILES,Hb adducts
1,"O=Cc1c(O)cccc1OCc1cccnc1 [Comp 1, 2-hydroxy-6-(pyridin-3-ylmethoxy)benzaldehyde]",above 90%
2,"O=Cc1c(O)cccc1OCc1ccccn1 [Comp 2, 2-hydroxy-6-(pyridin-2-ylmethoxy)benzaldehyde]",above 90%
3,"O=Cc1c(O)cccc1OCc1ncccc1F [Comp 5, 2-((3-fluoropyridin-2-yl)methoxy)-6-hydroxybenzaldehyde]",above 90%
